Results deposited as PubChem BioAssay AID1224826 (NIAID, 2016)

Screen: 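Knock-downs that raise or lower Tnf reporter signal after endotoxin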 (primary screen)
Cells: RAW264.7 G9 macrophages from mouse bearing reporters for p65 (GFP) and the Tnf promoter (mCherry)
Reagent: siRNA pool against mouse genes, 100 nM
Timing: 16 h of LPS stimulation, after 2 days of siRNA transfection
Challenge: bacterial lipopolysaccharide (Salmonella minnesota R595), 10 ng/ml
Read-out: 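Imaged Tnf reporter mCherry in nuclei, minus background, normalised per plate to the median and expressed as robust z-scores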
Scale: Tnf reporter robust z-score: higher = stronger Tnf promoter reporter signal after LPS; Tnf reporter intensity: higher = stronger Tnf promoter reporter signal
Call rule: 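Called active when robust z-score is at most -1.3, matching the median of the Tlr4 knock-down control, or over 3; control wells and wells with under 50 cells never active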
Calls: active = Tnf reporter clearly lowered or raised; inactive = no clear change in Tnf reporter
In all, the deposit lists about 17,000 reagents; below is a part drawn at random. About 1,110 of all reagents (6.6%) count as active. 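Active means lowered or raised reporter signal; replicate intensities are raw and not normalised per plate.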 Reagents against one gene are numbered here. No sequences are given here.

no.	gene symbol	pool no.	Tnf reporter robust z-score	fewer than 50 cells in well	Tnf reporter intensity, replicate 1	Tnf reporter intensity, replicate 2	call
1	Kcnq2	1	0.19	enough cells in well	262	155	inactive
2	Rbks	1	-0.45	enough cells in well	164	90.7	inactive
3	Cd55	1	1.47	enough cells in well	386	297	inactive
4	Or11h6	1	-1	enough cells in well	67	47.5	inactive
5	Cd59a	1	-0.46	enough cells in well	212	171	inactive
6	Slc38a9	1	5.36	enough cells in well	440	209	active
7	Slc38a9	2	-0.6	enough cells in well	169	124	inactive
8	Creb3l4	1	2.64	enough cells in well	354	328	inactive
9	Zfp280b	1	0.44	enough cells in well	206	208	inactive
10	Atrnl1	1	1.53	enough cells in well	281	228	inactive
11	Bnip1	1	-0.6	enough cells in well	112	134	inactive
12	Sult1c1	1	1.59	enough cells in well	180	129	inactive
13	Esr1	1	-0.33	enough cells in well	186	224	inactive
14	Trappc9	1		fewer than 50 cells per well; well left out of calls	155	47.4	inactive
15	Svs5	1	0.98	enough cells in well	148	119	inactive
16	Wdhd1	1	-0.78	enough cells in well	190	77.3	inactive
17	Adgre5	1	0.65	enough cells in well	237	404	inactive
18	Sstr3	1		fewer than 50 cells per well; well left out of calls	169	31.1	inactive
19	Borcs7	1	0.92	enough cells in well	243	63.4	inactive
20	Cisd2	1	-1.39	enough cells in well	148	38.6	active
21	2410002F23Rik	1		fewer than 50 cells per well; well left out of calls	103	61.2	inactive
22	Cyp2d26	1	-0.38	enough cells in well	154	160	inactive
23	Prok2	1	0.75	enough cells in well	171	154	inactive
24	Zim1	1		fewer than 50 cells per well; well left out of calls	84.6	67.7	inactive
25	Klf9	1	-0.34	enough cells in well	118	157	inactive
26	Slc12a2	1	0.69	enough cells in well	276	173	inactive
27	Padi6	1	0.75	enough cells in well	189	162	inactive
28	Snrpg	1		fewer than 50 cells per well; well left out of calls	47.5	28.1	inactive
29	Or10a4	1	1.92	enough cells in well	334	173	inactive
30	Idnk	1	1.91	enough cells in well	262	268	inactive
31	Fundc2	1		fewer than 50 cells per well; well left out of calls	169	58	inactive
32	Akap19	1		fewer than 50 cells per well; well left out of calls	153	89.9	inactive
33	Tas2r108	1	-0.56	enough cells in well	252	62.9	inactive
34	Zc3h6	1		fewer than 50 cells per well; well left out of calls	127	48.8	inactive
35	Zc3h6	2		fewer than 50 cells per well; well left out of calls	187	70.1	inactive
36	Cercam	1	-0.06	enough cells in well	169	138	inactive
37	AW209491	1	-0.14	enough cells in well	199	121	inactive
38	E4f1	1	0.75	enough cells in well	296	278	inactive
39	1700025G04Rik	1	-1.46	enough cells in well	147	26.1	active
40	Sh3glb2	1	1.07	enough cells in well	125	151	inactive
41	Gsto1	1	-0.86	enough cells in well	232	122	inactive
42	Fam193b	1	-0.92	enough cells in well	135	151	inactive
43	Dhrs4	1	0.61	enough cells in well	235	188	inactive
44	Fgf20	1	-0.17	enough cells in well	263	203	inactive
45	Syne2	1	-0.63	enough cells in well	144	146	inactive
46	Acan	1	-0.76	enough cells in well	101	153	inactive
47	Bpifb1	1	-0.77	enough cells in well	89	104	inactive
48	Gpr15	1	0.44	enough cells in well	197	427	inactive
49	Klhl1	1	-1.04	enough cells in well	133	66.9	inactive
50	Or14j9	1	1.1	enough cells in well	256	101	inactive
51	Ky	1	1.16	enough cells in well	254	192	inactive
52	Sgsm2	1	-1.45	enough cells in well	104	76.8	active
53	Ppp1r12c	1	0.44	enough cells in well	260	240	inactive
54	Mtrfr	1	-0.46	enough cells in well	221	56.4	inactive
55	Foxj2	1	-0.21	enough cells in well	332	134	inactive
56	Col9a3	1	-0.24	enough cells in well	183	219	inactive
57	Tpsb2	1	-1.22	enough cells in well	120	79	inactive
58	Ca2	1	0.44	enough cells in well	183	163	inactive

Records listed so far whose target name starts with O or o (3):
gene symbol	pool no.	Tnf reporter robust z-score	fewer than 50 cells in well	Tnf reporter intensity, replicate 1	Tnf reporter intensity, replicate 2	call
Or11h6	1	-1	enough cells in well	67	47.5	inactive
Or10a4	1	1.92	enough cells in well	334	173	inactive
Or14j9	1	1.1	enough cells in well	256	101	inactive
